In patent publication US20040005538A1:
No constants are given. Whether binding was seen depends on the method and setting. Some results given as binding are weak or reduced against the parent protein; the word gives no strength.

The chains behind the UniProt entries cited, without tags or fusion partners. Where a name states a change or a piece, a line headed by the entry shows the natural chain unless it says otherwise.
UniProt P20023: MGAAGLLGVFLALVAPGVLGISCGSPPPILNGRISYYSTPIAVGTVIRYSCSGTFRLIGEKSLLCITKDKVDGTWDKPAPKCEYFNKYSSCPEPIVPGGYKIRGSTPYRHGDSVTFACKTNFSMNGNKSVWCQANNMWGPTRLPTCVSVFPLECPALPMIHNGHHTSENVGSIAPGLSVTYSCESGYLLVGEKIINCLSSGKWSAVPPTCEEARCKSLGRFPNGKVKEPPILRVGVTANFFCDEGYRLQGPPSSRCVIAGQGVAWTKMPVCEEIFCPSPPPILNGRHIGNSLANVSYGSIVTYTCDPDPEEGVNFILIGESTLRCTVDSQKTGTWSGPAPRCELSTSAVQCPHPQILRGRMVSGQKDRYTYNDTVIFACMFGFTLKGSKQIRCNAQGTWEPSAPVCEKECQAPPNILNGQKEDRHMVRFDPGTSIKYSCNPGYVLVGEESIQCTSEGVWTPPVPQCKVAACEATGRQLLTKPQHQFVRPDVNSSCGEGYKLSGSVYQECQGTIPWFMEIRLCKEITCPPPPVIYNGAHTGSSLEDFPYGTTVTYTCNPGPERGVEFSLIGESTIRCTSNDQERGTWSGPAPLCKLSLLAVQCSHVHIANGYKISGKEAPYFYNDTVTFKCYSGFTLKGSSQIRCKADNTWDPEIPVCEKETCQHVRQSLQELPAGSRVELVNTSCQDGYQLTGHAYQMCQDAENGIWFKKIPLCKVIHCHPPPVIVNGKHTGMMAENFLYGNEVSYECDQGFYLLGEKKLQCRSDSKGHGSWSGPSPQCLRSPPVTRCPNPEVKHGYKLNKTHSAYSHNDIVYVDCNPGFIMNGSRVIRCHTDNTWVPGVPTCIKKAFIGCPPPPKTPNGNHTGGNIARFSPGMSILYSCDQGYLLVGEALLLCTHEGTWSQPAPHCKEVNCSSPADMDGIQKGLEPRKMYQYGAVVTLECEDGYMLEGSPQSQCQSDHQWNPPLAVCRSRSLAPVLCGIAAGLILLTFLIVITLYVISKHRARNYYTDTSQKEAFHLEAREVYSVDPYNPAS
UniProt P01024: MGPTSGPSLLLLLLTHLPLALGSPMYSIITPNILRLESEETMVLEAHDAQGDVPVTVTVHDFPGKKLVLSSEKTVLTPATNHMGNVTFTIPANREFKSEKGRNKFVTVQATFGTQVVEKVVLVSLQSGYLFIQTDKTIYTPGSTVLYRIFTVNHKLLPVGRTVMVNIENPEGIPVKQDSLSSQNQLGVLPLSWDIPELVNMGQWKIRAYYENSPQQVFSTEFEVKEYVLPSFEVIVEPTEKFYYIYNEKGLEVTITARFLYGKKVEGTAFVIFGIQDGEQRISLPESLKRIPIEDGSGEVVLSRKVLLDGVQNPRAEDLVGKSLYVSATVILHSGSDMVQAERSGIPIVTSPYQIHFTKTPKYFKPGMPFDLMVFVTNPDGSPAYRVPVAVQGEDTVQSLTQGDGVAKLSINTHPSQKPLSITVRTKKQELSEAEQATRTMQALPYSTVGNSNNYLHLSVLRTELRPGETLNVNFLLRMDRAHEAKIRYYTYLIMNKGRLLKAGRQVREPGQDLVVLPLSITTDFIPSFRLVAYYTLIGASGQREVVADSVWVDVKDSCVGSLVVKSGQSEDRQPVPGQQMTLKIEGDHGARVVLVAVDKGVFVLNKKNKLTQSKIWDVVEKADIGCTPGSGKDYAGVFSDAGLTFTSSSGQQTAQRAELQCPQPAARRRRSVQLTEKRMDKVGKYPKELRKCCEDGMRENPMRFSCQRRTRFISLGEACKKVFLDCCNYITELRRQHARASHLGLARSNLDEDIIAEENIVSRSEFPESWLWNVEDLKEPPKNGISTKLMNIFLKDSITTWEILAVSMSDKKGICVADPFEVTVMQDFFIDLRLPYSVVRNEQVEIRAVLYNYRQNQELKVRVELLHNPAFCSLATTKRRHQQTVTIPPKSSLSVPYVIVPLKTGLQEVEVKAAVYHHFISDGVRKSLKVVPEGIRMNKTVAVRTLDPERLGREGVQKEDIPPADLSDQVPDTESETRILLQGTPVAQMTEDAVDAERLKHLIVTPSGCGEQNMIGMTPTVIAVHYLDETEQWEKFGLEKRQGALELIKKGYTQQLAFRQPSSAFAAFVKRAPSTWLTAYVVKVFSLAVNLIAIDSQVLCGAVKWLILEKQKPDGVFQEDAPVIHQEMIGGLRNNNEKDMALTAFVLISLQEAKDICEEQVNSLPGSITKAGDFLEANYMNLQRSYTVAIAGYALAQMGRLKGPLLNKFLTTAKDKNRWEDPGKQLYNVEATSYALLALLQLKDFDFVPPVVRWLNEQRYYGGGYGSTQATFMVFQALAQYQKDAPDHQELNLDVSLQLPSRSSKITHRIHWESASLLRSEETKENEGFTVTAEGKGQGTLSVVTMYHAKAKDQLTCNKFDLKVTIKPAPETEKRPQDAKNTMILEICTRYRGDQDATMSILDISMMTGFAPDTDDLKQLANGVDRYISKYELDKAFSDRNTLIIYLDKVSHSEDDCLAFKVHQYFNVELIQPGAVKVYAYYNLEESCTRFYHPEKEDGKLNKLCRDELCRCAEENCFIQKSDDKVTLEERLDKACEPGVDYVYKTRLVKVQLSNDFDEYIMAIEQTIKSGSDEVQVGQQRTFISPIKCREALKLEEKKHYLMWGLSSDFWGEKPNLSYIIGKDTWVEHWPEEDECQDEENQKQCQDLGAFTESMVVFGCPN

What was measured:
[1] = molecular target: soluble full length CR2 (human) (UniProt P20023); assay: competitive ELISA; soluble C3d mutant as competitor against plate-bound wild type C3d
[2] = molecular target: soluble full length CR2 (human) (UniProt P20023); assay: competitive ELISA; soluble C3d as competitor against plate-bound wild type C3d

## C3d mutant Gln105Ala, Leu116Ala, Glu117Ala (from UniProt P01024 996-1303) (ligand)
[1]
  binding: binds

## human complement C3d, wild type (from UniProt P01024 996-1303) (ligand)
[2]
  binding: binds
